The source of these data is paper PMC10213629 (2023).

By UniProt entry, the sequences of proteins in these tests, tags left out.
UniProt Q51380: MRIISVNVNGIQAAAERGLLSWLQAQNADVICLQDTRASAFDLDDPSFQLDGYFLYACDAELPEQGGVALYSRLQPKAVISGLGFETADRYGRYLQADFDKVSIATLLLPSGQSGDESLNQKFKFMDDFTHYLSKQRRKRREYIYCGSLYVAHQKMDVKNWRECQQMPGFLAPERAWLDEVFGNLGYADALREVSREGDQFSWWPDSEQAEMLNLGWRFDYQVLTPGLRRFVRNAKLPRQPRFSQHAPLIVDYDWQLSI
UniProt Q9HZ71: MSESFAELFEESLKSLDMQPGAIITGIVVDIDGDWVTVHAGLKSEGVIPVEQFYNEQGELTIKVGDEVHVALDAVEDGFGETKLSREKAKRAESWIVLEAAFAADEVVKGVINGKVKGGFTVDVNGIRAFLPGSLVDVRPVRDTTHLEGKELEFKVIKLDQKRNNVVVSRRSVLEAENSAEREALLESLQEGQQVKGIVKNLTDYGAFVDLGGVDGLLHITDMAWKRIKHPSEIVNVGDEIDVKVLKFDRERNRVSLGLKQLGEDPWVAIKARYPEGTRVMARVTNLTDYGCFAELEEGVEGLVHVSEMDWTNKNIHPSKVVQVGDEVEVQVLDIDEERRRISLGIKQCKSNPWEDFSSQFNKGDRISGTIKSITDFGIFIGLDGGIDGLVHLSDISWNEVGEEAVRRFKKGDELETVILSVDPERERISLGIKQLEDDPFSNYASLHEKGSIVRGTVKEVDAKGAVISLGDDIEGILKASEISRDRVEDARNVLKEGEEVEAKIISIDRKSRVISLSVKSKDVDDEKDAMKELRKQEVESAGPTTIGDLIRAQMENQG

For this experiment, the target named is Crc (catabolite repression control protein), His-tag removed (Pseudomonas aeruginosa PAO1) (UniProt Q51380). In words: grating-coupled interferometry; Crc immobilised; Hfq without RNA or ribosomal protein S1 as analyte (negative controls); ES-buffer, 25°C; both purified.

Results are given in words; binding and its absence hold for the method and conditions named.

With “ribosomal protein S1 (from UniProt Q9HZ71 1-559)”, the binding entry is reported as “no binding”.
